# Measured values reported in PubChem BioAssay AID2551 (National Center for Advancing Translational Sciences (NCATS), 2010).
# Amino acid sequences for entries named in this document (tags omitted). A change or cut given only in a name is not applied to a line headed by its entry.
# UniProt P51450: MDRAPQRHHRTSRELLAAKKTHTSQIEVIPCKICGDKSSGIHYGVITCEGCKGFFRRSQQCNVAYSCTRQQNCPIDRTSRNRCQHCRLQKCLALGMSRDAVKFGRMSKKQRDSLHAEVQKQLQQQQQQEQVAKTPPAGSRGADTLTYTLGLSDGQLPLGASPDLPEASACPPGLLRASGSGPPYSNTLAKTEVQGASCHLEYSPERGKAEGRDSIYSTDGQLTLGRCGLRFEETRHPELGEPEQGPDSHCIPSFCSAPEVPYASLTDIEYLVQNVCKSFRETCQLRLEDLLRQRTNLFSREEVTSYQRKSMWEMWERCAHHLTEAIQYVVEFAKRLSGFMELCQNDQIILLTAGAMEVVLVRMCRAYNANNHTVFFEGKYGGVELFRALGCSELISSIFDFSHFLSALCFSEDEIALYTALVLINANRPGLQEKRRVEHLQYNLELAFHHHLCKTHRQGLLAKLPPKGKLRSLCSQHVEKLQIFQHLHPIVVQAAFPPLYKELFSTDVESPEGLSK
# About 17,000 (5.5%) of roughly 310,000 compounds were called active. Inconclusive results, whose numbers are uncertain, are shown with a selection of clear calls. Calls come from the whole dose curve; as a rule, active = well fitted inhibition curve with a large enough effect; inconclusive = small, poorly fitted or top-dose-only effect, or effect the other way; inactive = no such curve, though single readings can be large or run the other way. Potencies beside an inconclusive call are fits to weak or partial responses and may not hold up.
# Molecular target: Nuclear receptor ROR-gamma (Mus musculus) (UniProt P51450)
# Test: qHTS for inhibitors of ROR gamma transcriptional activity; note: nearly all actives have a fitted effect of over 60% in size
# Conditions: Drosophila S2 Gal4-RORgamma UAS-luciferase reporter, 20 h; activity change, negative = inhibition: at 53.6 µM (top of the series)
# Outline: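 Schneider cells (Drosophila), stable Gal4 DBD–ROR gamma + UAS-luc; 1 hr cmpd preincubation; Cu2+ induction 700 uM final; 20 hr ambient; luminescence.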
# % is set by controls: 0 for no effect and ±100 for the full control effect; potency is the fitted concentration of half-maximal effect.
Compound,Potency,"activity change, negative = inhibition"
O=C(Cn1ncc2c(=O)oc3ccccc3c21)Nc1nc2ccccc2s1,"inconclusive: 0.005 µM [activator, full curve, poor fit]",–
CCCc1ccc(-c2cc(N)n[nH]2)cc1,–,inactive: 25.6%
COc1cc(C2c3c(oc4ccccc4c3=O)C(=O)N2Cc2cccnc2)cc(OC)c1OC (centres undefined),"inconclusive: 2.82 µM [activator, single point]",–
Cc1ccc(S(=O)(=O)N(C(=O)c2ccncc2)c2ccc(OC(=O)c3ccncc3)c3ccccc23)cc1,active: 12.6 µM,–
Cc1cccc(Nc2ccc([N+](=O)[O-])cn2)c1,"inconclusive: 8.91 µM [activator, partial curve]",–
Cc1ccc(S(=O)(=O)c2c(COC(=O)c3ccccc3Cl)c(-c3ccccc3)nn2C)cc1,–,inactive: -11.2%
CCOc1cc(C(=O)OCC(=O)Nc2cc(C)on2)ccc1OCC(C)C,"inconclusive: 35.5 µM [inhibitor, single point]",–
COc1ccccc1NC(=S)NC(C)=O,active: 11.2 µM,–
CC(NC(=O)c1noc2c1CCCCC2)c1ccccc1 (centres undefined),"inconclusive: 15.8 µM [activator, partial curve]",–
CCOc1ccccc1OCC(=O)Nc1nnc(COC)s1,"inconclusive: 10 µM [activator, partial curve]",–
O=C(COC(=O)c1ccccc1Nc1ccccc1)NCc1ccccc1Cl,"inconclusive: 35.5 µM [inhibitor, single point]",–
Cc1ccc(-n2c(-c3ccc(Cl)cc3)n[nH]c2=S)c(C)c1,active: 1.41 µM,–
NS(=O)(=O)c1ccc(CCNC(=O)C(=O)NCC2OCCN2S(=O)(=O)c2ccc(Cl)cc2)cc1 (centres undefined),–,inactive: 30.3%
Cc1ccc(-n2nnnc2CCl)cc1,–,inactive: 17.8%
Cc1ccc(-c2nn(-c3ccccc3)cc2C(=O)N2CCN(c3ccccn3)CC2)cc1,"inconclusive: 35.5 µM [inhibitor, single point]",–
COc1ccc2cc3cc(C(=O)NCCN4CCN(c5ccccc5F)CC4)oc3nc2c1,"inconclusive: 1.58 µM [activator, full curve, poor fit]",–
CC(C1CC1)N(Cc1ccccc1)C(=S)Nc1ccccc1 (centres undefined),active: 11.2 µM,–
O=C(Nc1ccc(-c2nc3ncccc3o2)cc1)c1ccc(Br)o1,"inconclusive: 3.16 µM [activator, single point]",–
CCOCCCNC(=S)N1CCC(C(=O)c2ccc3c(c2)OCCO3)CC1,–,inactive: -10.8%
Cc1cc(NC(=O)CSc2nnc(-c3ccco3)n2Cc2ccco2)no1,"inconclusive: 35.5 µM [activator, single point]",–
O=C(CN(Cc1ccc(Cl)c(Cl)c1)S(=O)(=O)c1ccccc1)N/N=C\c1ccc2c(c1)OCO2,–,inactive: -2.06%
N#Cc1ccccc1NC(=S)Nc1ccc(F)cc1,active: 17.8 µM,–
COc1ccc2nc(NC(=O)CN(C)S(=O)(=O)c3cccs3)sc2c1,"inconclusive: 5.01 µM [activator, partial curve]",–
CCN1CCN(c2c(C(=O)c3ccc(OC)cc3)cnc3ccccc23)CC1,"inconclusive: 12.6 µM [inhibitor, single point]",–
Cc1cc(O)cc(O)c1-c1onc(C(F)(F)F)c1-c1cscn1,"inconclusive: 12.6 µM [activator, partial curve]",–

# Some of the entries so far, with tabs:
Compound	Potency	activity change, negative = inhibition
NS(=O)(=O)c1ccc(CCNC(=O)C(=O)NCC2OCCN2S(=O)(=O)c2ccc(Cl)cc2)cc1 (centres undefined)	–	inactive: 30.3%
O=C(Nc1ccc(-c2nc3ncccc3o2)cc1)c1ccc(Br)o1	inconclusive: 3.16 µM [activator, single point]	–

# The listing continues.

Compound,Potency,"activity change, negative = inhibition"
O=C(CSc1nnc(CNC(=O)c2c(F)cccc2F)o1)NCCc1ccccc1,"inconclusive: 35.5 µM [inhibitor, single point]",–
Cc1ccc(OCC(=O)NNC(=S)NCc2ccccc2)cc1,active: 1.26 µM,–
CCCCCc1cc(O)c2c(C)cc(=O)oc2c1,active: 3.16 µM,–
COCCNC(=S)N(Cc1cccs1)Cc1cc2cccc(C)c2[nH]c1=O,–,inactive: -6.15%
CCCC(C(=O)NC1CCCC1)N(Cc1ccccc1Cl)C(=O)c1snc(C(N)=O)c1N (centres undefined),–,inactive: 16.5%
CN(C)CCCN(C(=O)CCc1ccccc1)c1nc2ccc(Br)cc2s1,"inconclusive: 20 µM [inhibitor, single point]",–
Clc1cccc(-c2sc(Nc3ccccc3)n[n+]2-c2ccccc2)c1Cl,active: 14.1 µM,–
O=C(c1cccc(Cl)c1)N1CCC(=O)N(C(COCc2cccc(Cl)c2)Cc2ccccc2)CC1 (centres undefined),"inconclusive: 25.1 µM [activator, single point]",–
Cc1cc(NC(=O)c2c(F)cccc2F)n(-c2nc3ccccc3[nH]2)n1,active: 3.55 µM,–
Cc1cc(=O)n(C)c(=O)n1CCCCCOc1cccc([N+](=O)[O-])c1,"inconclusive: 28.2 µM [activator, single point]",–
COc1ccc(Cl)cc1NC(=S)NCc1ccccn1,"inconclusive: 17.8 µM [inhibitor, single point]",–
C=CCNc1sc(C(=O)c2ccccc2)c(N)c1-c1nc2ccccc2s1,active: 4.47 µM,–
O=C(N/N=C/C=C/c1ccccc1)NC1CCCCC1,"inconclusive: 0.0631 µM [activator, partial curve, poor fit]",–
COc1ccc(CNC(=O)C2CCN(S(=O)(=O)N3CCCC3)CC2)c(OC)c1,–,inactive: 16.1%
CC1(C)CC(=O)C(CS(=O)(=O)c2ccccc2)=C(Cl)C1,"inconclusive: 22.4 µM [inhibitor, single point]",–
CC(C)c1nn2c(=O)cc(CSc3ccccc3NC(=O)c3ccccc3F)nc2s1,–,inactive: -3.85%
CC(=O)NS(=O)(=O)c1ccc(NC(=O)c2ccc3c(c2)OCO3)cc1,active: 20 µM,–
CC1CN(C(=S)Nc2cccc(Cl)c2Cl)CC(C)O1 (centres undefined),active: 17.8 µM,–
CCn1c(=O)c2ccccc2n(CC(=O)NC2CCCCC2)c1=O,–,inactive: -6.56%
CNC(=S)SCCOc1ccc(C)cc1,"inconclusive: 22.4 µM [inhibitor, single point]",–
Cc1nn(Cc2c(F)c(F)c(F)c(F)c2F)c(C)c1NC(=O)c1ccc(COc2ccc(Cl)cc2Cl)o1,"inconclusive: 17.8 µM [activator, single point]",–
CS(=O)(=O)N(CC(=O)N1CCCCCC1)c1ccc(Br)cc1,–,inactive: -20.1%
CC1(OC(=O)C2CCCC2)C(=O)C=C2C=C(c3ccsc3)N(c3ccccc3)C=C2C1=O (centres undefined),–,inactive: -24.7%
Oc1c(C(c2cccs2)N2CCC3(CC2)OCCO3)sc2ncnn12 (centres undefined),"inconclusive: 20 µM [inhibitor, single point]",–
